Where “and” joins values, the source holds several entries; their conditions need not be identical. Identical values can stand only once. The list shows a part of the results. The main result of the screen is listed elsewhere. These columns were measured beside it and carry no call. Most of these compounds were active or inconclusive in the main read-out, so they are no random draw. Potencies come from curve fits of mixed quality, noted in brackets.
Assay: qHTS Assay for Modulators of Lamin A Splicing
Conditions: HeLa LMNA splicing GFP/RFP minigene ratio, 48 h
Outline: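 S3 HeLa stable clones carrying a lamin A-EGFP splicing minigene plus DsRed2 were seeded at 600 cells/well in Opti-MEM with 2% FBS, pin-dosed and incubated 48 h at 37°C. Acumen cytometry (488 nm) gave the GFP/RFP total-intensity ratio.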

[1] = measured here: RFP viability control channel
[2] = measured here: GFP splicing reporter channel

CCOC(=O)N1CCN(C(=O)CN(Cc2ccccc2)S(=O)(=O)c2ccc(OC)c(C)c2)CC1
AC50 [1]: 35.5 µM [rising, single point]

COc1ccc(NC(=O)Cn2cc(C(=O)c3ccncc3)c(=O)c3cc(C)ccc32)cc1Cl
AC50 [2]: 0.158 µM [falling, full curve, poor fit] | AC50 [1]: 11.2 µM [falling, partial curve, poor fit]

Cc1ccnc(NC(=O)CCCOc2cc(=O)n(C)c3ccccc23)c1
AC50 [2]: 15.8 µM [falling, single point] | AC50 [1]: 11.2 µM [falling, partial curve]

CN(C)CCCN(Cc1ccccc1)C(=S)Nc1cccc(C(F)(F)F)c1
AC50 [1]: 17.8 µM [rising, partial curve]

Cc1cc(S(=O)(=O)N2CCN(Cc3ccc4c(c3)OCO4)CC2)cc(C)c1N1CCCC1=O
AC50 [2]: 4.47 µM [rising, partial curve] | AC50 [1]: 10 µM [rising, partial curve]

COc1ccccc1N1CCN(C(=O)c2ccc(CS(=O)(=O)c3ccccc3OC)o2)CC1
AC50 [1]: 15.8 µM [rising, single point]

COc1cccc(-c2nc(NC3CCNCC3)c3ccccc3n2)c1
AC50 [2]: 10 µM [falling, partial curve] | AC50 [1]: 7.08 µM [falling, partial curve, poor fit]

O=C(c1cn(-c2ccccc2)nc1-c1cccc([N+](=O)[O-])c1)N1CCCCC1
AC50 [1]: 3.55 µM [falling, partial curve]

CCOc1ccc(N(Cc2ccc(OC)c(OC)c2)C(=O)c2ccco2)cc1
AC50 [2]: 17.8 µM [falling, partial curve, poor fit] | AC50 [1]: 0.0224 µM [falling, full curve, poor fit]

O=C(Cn1nc(-c2ccccc2)c2cnc3ccc(F)cc3c21)NC1CCCC1
AC50 [2]: 6.31 µM [falling, partial curve, poor fit]

COC(=O)[C@@]1(Cc2ccc(OC)cc2)[C@H]2c3cc(C(=O)N(C)C)n(CCc4ccc(OC)c(Br)c4)c3C[C@H]2CN1C(=O)c1ccccc1
AC50 [2]: 12.6 µM [rising, partial curve] | AC50 [1]: 17.8 µM [rising, partial curve]

Cn1c(-c2ccccc2)cc2c3no[n+]([O-])c3ccc21
AC50 [2]: 3.98 µM [falling, full curve] | AC50 [1]: 2.51 µM [falling, full curve]

O=C(Nc1cc(C(=O)Nc2ccc(S(=O)(=O)O)cc2S(=O)(=O)O)cc(C(=O)Nc2ccc(S(=O)(=O)O)cc2S(=O)(=O)O)c1)Nc1cc(C(=O)Nc2ccc(S(=O)(=O)O)cc2S(=O)(=O)O)cc(C(=O)Nc2ccc(S(=O)(=O)O)cc2S(=O)(=O)O)c1
AC50 [2]: 10 µM [falling, partial curve, poor fit]

O=C(COC(=O)CCC1CCCC1)Nc1ccccc1Sc1ccccc1
AC50 [2]: 0.708 µM [rising, full curve, poor fit] | AC50 [1]: 0.631 µM [rising, single point]

COCCCNC(=O)CCc1ccccc1
AC50 [1]: 4.47 µM [falling, full curve, poor fit]

COc1ccc(OC)c(C2NC(=O)NC(C)=C2C(=O)Nc2ccc(C)cc2)c1 (stereo not drawn)
AC50 [1]: 3.98 µM [falling, single point]

O=C(O)C1CCN(c2nc(-c3ccccc3)nc3c2oc2ccccc23)CC1
AC50 [1]: 1 µM [rising, partial curve, poor fit]

Cc1cc(NC(=O)CSc2nc3c([nH]c4ccccc43)c(=O)n2-c2ccccc2F)no1
AC50 [2]: 35.5 µM [falling, single point] | AC50 [1]: 35.5 µM [falling, single point]

COc1ccc(C(=O)OCC(=O)NC2CC2)cc1[N+](=O)[O-]
AC50 [2]: 0.00447 µM [falling, full curve, poor fit] | AC50 [1]: 0.01 µM [falling, full curve, poor fit]

CCCCCCc1cc2cc(C(=O)Nc3ccc(OC)cc3)c(=O)oc2cc1O
AC50 [1]: 4.47 µM [rising, full curve]

Cc1cc(N/N=C/c2ccccc2O)nc(-c2ccccc2O)n1
AC50 [2]: 35.5 µM [falling, single point]

Cc1ccc(S(=O)(=O)N(C)CCCC(=O)Nc2cc(C)ccc2C)cc1
AC50 [1]: 14.1 µM [rising, single point]

O=C(COc1ccc([N+](=O)[O-])cc1)N1CCC(c2nc3ccccc3s2)CC1
AC50 [2]: 3.16 µM [falling, full curve, poor fit]

CCOc1ccc(NC(=S)NNc2ccnc3cc(Cl)ccc23)cc1
AC50 [2]: 8.91 µM [falling, partial curve, poor fit]

COc1ccc(/C=N/Nc2nonc2N)cc1
AC50 [1]: 20 µM [falling, single point]

COC(=O)Cn1c2ccc(F)cc2c2nc(C)sc21
AC50 [1]: 35.5 µM [rising, single point]

CC(C)(CC(=O)OCC(=O)Nc1ccccc1F)CC1=NS(=O)(=O)c2ccccc2N1
AC50 [2]: 2 µM [rising, partial curve, poor fit]

Cc1ccc(C(=O)Nc2ccc(S(=O)(=O)N3CCc4ccccc43)cc2)o1
AC50 [2]: 14.1 µM [rising, partial curve] | AC50 [1]: 17.8 µM [rising, single point]

NC(N)=N/N=C/c1ccc(OCc2ccc(Cl)cc2)cc1
AC50 [1]: 10 µM [rising, single point]

CCN(CC)S(=O)(=O)c1cc(-c2nnc(-c3ccc(Br)cc3)o2)ccc1Cl
AC50 [2]: 7.08 µM [rising, single point] | AC50 [1]: 2.82 µM [rising, full curve]

Cc1cccc(C)c1Nc1nnc(SCC(=O)Nc2cc(S(=O)(=O)N3CCCCC3)ccc2Cl)s1
AC50 [1]: 35.5 µM [rising, single point]

CC(=O)c1c(C)[nH]c(C(=O)OC(C)C(=O)Nc2cc(S(=O)(=O)N3CCCCC3)ccc2Cl)c1C (stereo not drawn)
AC50 [1]: 5.62 µM [rising, single point]

CC(C)(C)S(=O)(=O)c1ccsc1C(=O)O
AC50 [1]: 35.5 µM [rising, single point]

COc1ccc(C(=O)NCCn2ccc3ccccc32)c(OC)c1
AC50 [2]: 11.2 µM [rising, partial curve, poor fit] | AC50 [1]: 7.94 µM [rising, partial curve]

Cc1ccc(NC(=O)Nc2nnc(Cc3ccc([N+](=O)[O-])cc3)s2)cc1C
AC50 [1]: 1.58 µM [rising, partial curve, poor fit]

CCOC(=O)c1c(N)sc2c1CCC(C)C2 (stereo not drawn)
AC50 [2]: 35.5 µM [rising, single point]

COc1ccc(CCNC(=O)c2sc3ccccc3c2Cl)cc1OC
AC50 [1]: 17.8 µM [rising, single point]

CC(C)(Sc1ccc(CCN(CCCCC2CCCCC2)C(=O)NC2CCCCC2)cc1)C(=O)O
AC50 [2]: 20 µM [falling, single point] | AC50 [1]: 22.4 µM [falling, partial curve]

COc1ccccc1NC(=O)Nc1ccc(Cl)c(S(=O)(=O)Nc2ccccc2OC)c1
AC50 [1]: 35.5 µM [rising, single point]

CCN(Cc1ccncc1)C(=O)c1cc(Br)cc(Br)c1O
AC50 [2]: 10 µM [rising, partial curve, poor fit] | AC50 [1]: 6.31 µM [rising, partial curve]

O=C(O)C1=C(C(=O)Nc2cc(C(F)(F)F)ccc2Cl)CCCC1
AC50 [2]: 2.24 µM [falling, partial curve, poor fit] | AC50 [1]: 2.51 µM [falling, partial curve, poor fit]

CC(C)(C)c1cc(C(=O)Nc2cccc3ccccc23)ccn1
AC50 [1]: 0.891 µM [rising, full curve, poor fit]

CCc1cc2c(N3CCCCC3)ncnc2s1
AC50 [1]: 20 µM [rising, single point]

COc1ccc(C)c(Cn2c(-c3nonc3N)nc3ccccc32)c1
AC50 [1]: 7.94 µM [rising, partial curve, poor fit]

CCOC(=O)c1cccc(NC(=O)CSc2nnc(C3CCCCC3)n2CC)c1
AC50 [2]: 12.6 µM [rising, partial curve]

COc1ccc(-n2nc(C#N)c(Cl)cc2=O)cc1
AC50 [1]: 10 µM [falling, partial curve]

CSc1ccc2c(c1)N(CCC1CCCCN1C)c1ccccc1S2 (stereo not drawn)
AC50 [2]: 1.26 µM [falling, full curve, poor fit] and 12.6 µM [falling, partial curve] and 35.5 µM [falling, single point] | AC50 [1]: 25.1 nM [rising, partial curve, poor fit] and 14.1 µM [falling, partial curve]

CCC/C(=N\NC(=O)Cc1csc(N2CCOCC2)n1)c1ccccc1
AC50 [2]: 8.91 µM [falling, partial curve] | AC50 [1]: 15.8 µM [falling, single point]

O=C(Cn1c(-c2cccs2)cc2cc(F)ccc21)N1CCN(c2cccc(Cl)c2)CC1
AC50 [2]: 0.112 µM [falling, full curve]

COc1cccc(Cc2nc3ccccc3nc2SCC(=O)N2CCN(c3ccccc3)CC2)c1
AC50 [2]: 0.562 µM [rising, single point] | AC50 [1]: 0.708 µM [rising, single point]

O=C(N1CCN(c2ccccc2F)CC1)C1(c2cccs2)CCOCC1
AC50 [2]: 17.8 µM [rising, single point] | AC50 [1]: 31.6 µM [rising, single point]

Cc1noc(C)c1COc1cccc(C(=O)OCC(=O)N2CC(=O)Nc3ccccc32)c1
AC50 [2]: 2.82 µM [falling, full curve] | AC50 [1]: 5.01 µM [falling, full curve, poor fit]
